Source: patent US7214495B2, “Screening method” (Takeda Pharmaceutical Company Limited, priority 2002, dated 2007)
At least one structure is not confirmed: it was looked up by name or label, or the drawing left a doubt.

Amino acid sequences for entries named in this document (tags omitted).
UniProt O14842, whole entry: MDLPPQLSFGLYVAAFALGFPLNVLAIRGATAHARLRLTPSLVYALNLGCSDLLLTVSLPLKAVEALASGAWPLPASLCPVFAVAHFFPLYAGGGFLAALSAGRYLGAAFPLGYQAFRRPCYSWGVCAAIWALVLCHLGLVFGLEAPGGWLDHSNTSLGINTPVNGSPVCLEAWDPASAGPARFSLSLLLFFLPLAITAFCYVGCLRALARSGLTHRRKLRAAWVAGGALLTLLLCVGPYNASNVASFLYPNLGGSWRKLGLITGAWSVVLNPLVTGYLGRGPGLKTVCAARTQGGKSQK

Target: T1, human-derived GPR40 (Homo sapiens, UniProt O14842)
T1 construct: The DNA fragment encoding human GPR40 was acquired by the following PCR procedures; expressed in transfected cells; host or cells: CHO-K1 (transient, Lipofectamine)
Experiment: Intracellular calcium change (FLIPR) in CHO-K1 cells transiently expressing GPR40
Format: cell-based
Conditions: added in 10^−5 M to 10^−6 M; no response in vector-only control cells
Experimental: The CHO-K1 cell line was cultured in HAM F-12 medium (Invitrogen) containing 10% fetal calf serum (Invitrogen), unless otherwise indicated. One day before transfection, 4.5×10^5 cells per 10 cm^2 were plated, followed by incubation in a CO2 incubator adjusted to a concentration of 5% CO2 at 37° C. for at least 15 hours. Using Lipofectamine reagent (Invitrogen), transfection procedures were carried out by modifications of the method attached to the reagent. When a 6-well plate was used for the incubator, the following procedures were performed. First, 2 tubes each having a 1.5 ml volume were prepared and 100 μl each of Opti-MEM-I medium (Invitrogen) was dispensed in each tube. Next, 1 μg of the expression vector was charged in one tube and in another tube, 6 μl of Lipofectamine reagent was charged, which were mixed together. The mixture was settled for 20 minutes at room temperature. […] The cells obtained were counted and diluted to 5×10^4 cells per 200 μl of the medium. […] Various test samples were added to the CHO-K1 cells in which the receptor was transiently expressed by the transfection operation described above, whereby changes in the intracellular calcium ion level were determined using FLIPR (Molecular Device). […]
Following the pre-treatment above, changes in intracellular calcium level after addition of various test samples were measured on FLIPR.

CC/C=C\C/C=C\C/C=C\C/C=C\C/C=C\CCCC(=O)O [Eicosapentaenoic acid (C20:5), Eicosapentaenoic acid]
response (increase in intracellular calcium level) of GPR40-expressing CHO-K1 cells: specifically responsive
